Record: PubChem BioAssay AID504784 (Drosophila RNAi Screening Center, 2011)

Assay: 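Fly genes whose silencing alters how much lipid cells keep in droplets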 (primary screen)
System: Drosophila Kc167 embryonic cells
Knock-down reagent: long dsRNA against Drosophila genes, about 250 ng dsRNA per well
Timing: 4 days
Challenge: cells fed 400 µM oleic acid bound to BSA
Measurement: 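Microscope images give a droplet-to-nucleus area ratio, taken as log and converted to a screen-wide B-score; higher values mean greater lipid storage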
Reading the numbers: droplet/nuclear area B-score: higher = more stored lipid (overstorage)
The deposit covers about 17,000 reagents; below is a random part of those with a known target gene and a result. 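Each column is one replicate's B-score; the combined score over replicates was not deposited, so single values may mislead.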 The numbers tell different reagents against one gene apart. Names joined by + are all predicted targets of the reagent. Further read-outs or replicates are left out here. Reagent sequences are not shown.

The opening 3 records, to show the layout:
droplet/nuclear area B-score, replicate 1 | droplet/nuclear area B-score, replicate 2 | target | reagent
– | -0.559 | CG17193 | 1
1.56 | 0.474 | Tb (Tubby) | 1
0.0151 | -0.00637 | CG43896 | 1

The list itself, from the first entry:
droplet/nuclear area B-score, replicate 1 | droplet/nuclear area B-score, replicate 2 | target | reagent
– | -0.559 | CG17193 | 1
1.56 | 0.474 | Tb (Tubby) | 1
0.0151 | -0.00637 | CG43896 | 1
-0.184 | 0.241 | CG30088 | 1
-0.16 | -1.14 | blp (black pearl) | 1
-2.19 | -1.22 | CG14915 | 1
-0.843 | 1.26 | TwdlR (TweedleR) | 1
0.0212 | 0.0294 | CG10628 | 1
-0.265 | 0.821 | CG17122 | 1
-0.246 | -0.315 | Uggt (UDP-glucose-glycoprotein glucosyltransferase) | 1
0.402 | 0.727 | CG31819 | 1
0.1 | -0.306 | O-fut1 (O-fucosyltransferase 1) | 1
-0.546 | -0.56 | CG18536 | 1
-1.73 | -1.02 | CG17378 | 1
1.62 | – | Ugt49B1 (UDP-glycosyltransferase family 49 member B1) | 1
0.0867 | 1.65 | Syt14 (Synaptotagmin 14) | 1
0.351 | -0.84 | Ptp61F (Protein tyrosine phosphatase 61F) | 1
1.15 | 2.33 | CG9632 | 1
-0.364 | 0.381 | Pi3K92E (Phosphatidylinositol 3-kinase 92E) | 1
-1.4 | 0.839 | CG11537 | 1
1.46 | -0.164 | lbl (ladybird late) | 1
-1.2 | -0.703 | SKIP (Shal K[+] channel interacting protein) | 1
2.39 | 0.654 | SKIP (Shal K[+] channel interacting protein) | 2
-0.0296 | -1.51 | SKIP (Shal K[+] channel interacting protein) | 3
-0.00474 | 3.32 | SKIP (Shal K[+] channel interacting protein) | 4
-0.264 | -0.105 | SKIP (Shal K[+] channel interacting protein) | 5
-0.248 | 0.817 | CG7215 + Prx5 | 1
-0.108 | -0.126 | CG7215 + Prx5 | 2
-1.09 | -0.709 | CG12078 | 1
0.948 | 1.32 | CG2004 | 1
0.0594 | -1.17 | CG16799 | 1
0.804 | 1.44 | CG16799 | 2
0.012 | 0.324 | CCKLR-17D1 (Cholecystokinin-like receptor at 17D1) | 1
-0.0172 | -0.862 | CCKLR-17D1 (Cholecystokinin-like receptor at 17D1) | 2
